Reference: paper PMC10831774

Protein sequences, listed by entry. Tags and fused reporters are not part of them. Lines headed by an entry give the natural chain unless they say otherwise; changes in a name come on top.
UniProt P03372: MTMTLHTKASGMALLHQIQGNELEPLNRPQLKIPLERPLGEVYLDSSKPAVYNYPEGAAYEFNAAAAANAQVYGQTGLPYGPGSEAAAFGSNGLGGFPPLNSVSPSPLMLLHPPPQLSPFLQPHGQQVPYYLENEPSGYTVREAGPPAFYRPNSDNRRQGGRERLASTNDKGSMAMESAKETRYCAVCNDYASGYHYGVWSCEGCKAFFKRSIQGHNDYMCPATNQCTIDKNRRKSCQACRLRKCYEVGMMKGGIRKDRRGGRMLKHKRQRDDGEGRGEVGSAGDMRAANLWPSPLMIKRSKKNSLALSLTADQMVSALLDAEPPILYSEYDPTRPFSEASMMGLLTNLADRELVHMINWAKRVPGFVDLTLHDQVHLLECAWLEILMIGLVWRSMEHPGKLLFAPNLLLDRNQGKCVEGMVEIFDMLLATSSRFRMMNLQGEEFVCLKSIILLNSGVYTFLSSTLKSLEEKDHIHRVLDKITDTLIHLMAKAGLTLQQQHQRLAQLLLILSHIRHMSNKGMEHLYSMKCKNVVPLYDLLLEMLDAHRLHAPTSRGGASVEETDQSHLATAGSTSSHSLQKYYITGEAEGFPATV
UniProt Q13185: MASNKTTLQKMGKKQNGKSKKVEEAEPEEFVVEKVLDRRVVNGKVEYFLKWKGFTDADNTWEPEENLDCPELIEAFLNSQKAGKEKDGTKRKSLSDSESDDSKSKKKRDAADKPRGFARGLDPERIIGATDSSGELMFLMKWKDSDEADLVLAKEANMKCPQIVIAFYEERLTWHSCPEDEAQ
UniProt Q92841: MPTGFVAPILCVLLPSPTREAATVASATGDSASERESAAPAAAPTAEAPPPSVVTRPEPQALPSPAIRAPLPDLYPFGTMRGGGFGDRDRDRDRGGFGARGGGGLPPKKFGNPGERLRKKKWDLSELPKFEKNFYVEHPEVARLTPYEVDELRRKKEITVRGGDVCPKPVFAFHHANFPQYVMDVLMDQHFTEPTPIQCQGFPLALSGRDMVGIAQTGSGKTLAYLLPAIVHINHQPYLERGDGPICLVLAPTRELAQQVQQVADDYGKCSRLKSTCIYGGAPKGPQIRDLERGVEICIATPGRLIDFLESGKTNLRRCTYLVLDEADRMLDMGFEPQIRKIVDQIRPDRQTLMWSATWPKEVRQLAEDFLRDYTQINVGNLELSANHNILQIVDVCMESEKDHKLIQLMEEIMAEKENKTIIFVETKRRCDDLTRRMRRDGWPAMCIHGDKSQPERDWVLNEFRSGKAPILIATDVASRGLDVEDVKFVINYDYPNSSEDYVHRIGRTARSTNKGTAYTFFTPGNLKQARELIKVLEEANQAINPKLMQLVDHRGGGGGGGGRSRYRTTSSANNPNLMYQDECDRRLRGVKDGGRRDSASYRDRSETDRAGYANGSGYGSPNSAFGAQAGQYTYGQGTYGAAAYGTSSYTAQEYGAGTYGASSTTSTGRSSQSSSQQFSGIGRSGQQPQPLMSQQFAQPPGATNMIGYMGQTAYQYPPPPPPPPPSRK
UniProt Q8IZL8: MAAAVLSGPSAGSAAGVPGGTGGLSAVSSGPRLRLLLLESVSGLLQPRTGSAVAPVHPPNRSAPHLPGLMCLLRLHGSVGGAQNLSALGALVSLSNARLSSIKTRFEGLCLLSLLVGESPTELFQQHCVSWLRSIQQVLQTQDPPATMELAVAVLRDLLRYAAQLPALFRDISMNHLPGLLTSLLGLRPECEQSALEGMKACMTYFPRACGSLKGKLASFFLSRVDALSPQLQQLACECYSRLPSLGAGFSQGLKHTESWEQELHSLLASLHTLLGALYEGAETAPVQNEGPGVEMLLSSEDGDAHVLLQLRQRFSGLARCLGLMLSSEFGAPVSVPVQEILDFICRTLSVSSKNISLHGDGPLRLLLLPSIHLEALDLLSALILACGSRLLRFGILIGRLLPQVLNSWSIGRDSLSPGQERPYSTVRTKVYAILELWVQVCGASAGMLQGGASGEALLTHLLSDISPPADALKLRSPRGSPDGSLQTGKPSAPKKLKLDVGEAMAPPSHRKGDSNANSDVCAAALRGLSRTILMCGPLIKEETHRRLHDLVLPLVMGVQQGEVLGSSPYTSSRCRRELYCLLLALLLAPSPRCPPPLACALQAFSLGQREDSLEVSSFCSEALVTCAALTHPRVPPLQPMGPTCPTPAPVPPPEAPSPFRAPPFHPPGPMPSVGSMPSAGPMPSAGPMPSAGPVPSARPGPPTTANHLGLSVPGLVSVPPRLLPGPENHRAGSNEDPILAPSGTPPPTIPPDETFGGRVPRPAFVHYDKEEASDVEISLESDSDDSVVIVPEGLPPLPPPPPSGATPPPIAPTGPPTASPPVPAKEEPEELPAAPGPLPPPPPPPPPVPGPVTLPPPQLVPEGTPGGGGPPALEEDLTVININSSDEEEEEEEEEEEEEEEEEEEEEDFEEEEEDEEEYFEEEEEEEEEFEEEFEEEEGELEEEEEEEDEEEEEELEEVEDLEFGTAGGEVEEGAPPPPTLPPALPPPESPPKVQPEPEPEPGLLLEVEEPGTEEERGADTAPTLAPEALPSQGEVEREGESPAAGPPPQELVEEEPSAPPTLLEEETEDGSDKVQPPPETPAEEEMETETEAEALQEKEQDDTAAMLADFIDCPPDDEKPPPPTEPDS
UniProt Q9UKL0: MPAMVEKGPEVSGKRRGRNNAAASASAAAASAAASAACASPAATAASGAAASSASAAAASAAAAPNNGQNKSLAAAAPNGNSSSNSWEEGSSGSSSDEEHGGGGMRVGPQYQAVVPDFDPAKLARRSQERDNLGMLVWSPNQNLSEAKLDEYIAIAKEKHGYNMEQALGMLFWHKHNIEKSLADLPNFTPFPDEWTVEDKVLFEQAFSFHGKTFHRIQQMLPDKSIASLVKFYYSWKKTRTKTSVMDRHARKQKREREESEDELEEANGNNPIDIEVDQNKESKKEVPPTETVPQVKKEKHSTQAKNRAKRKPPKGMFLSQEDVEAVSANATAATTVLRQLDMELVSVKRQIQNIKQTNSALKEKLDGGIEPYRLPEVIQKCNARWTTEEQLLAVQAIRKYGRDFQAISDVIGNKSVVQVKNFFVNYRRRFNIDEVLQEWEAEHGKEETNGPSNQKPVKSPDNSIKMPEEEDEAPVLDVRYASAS
UniProt Q06587: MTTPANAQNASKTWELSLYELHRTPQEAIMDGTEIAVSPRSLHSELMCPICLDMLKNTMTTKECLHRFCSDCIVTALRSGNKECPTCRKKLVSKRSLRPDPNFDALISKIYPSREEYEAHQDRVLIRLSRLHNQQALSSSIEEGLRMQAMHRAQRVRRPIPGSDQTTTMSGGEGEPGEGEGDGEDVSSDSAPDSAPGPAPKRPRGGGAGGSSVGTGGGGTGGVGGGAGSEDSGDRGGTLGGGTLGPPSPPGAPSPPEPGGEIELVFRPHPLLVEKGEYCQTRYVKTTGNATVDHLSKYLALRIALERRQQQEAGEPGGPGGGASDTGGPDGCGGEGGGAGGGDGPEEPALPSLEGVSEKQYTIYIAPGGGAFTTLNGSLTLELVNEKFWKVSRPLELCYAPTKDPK
UniProt O15047: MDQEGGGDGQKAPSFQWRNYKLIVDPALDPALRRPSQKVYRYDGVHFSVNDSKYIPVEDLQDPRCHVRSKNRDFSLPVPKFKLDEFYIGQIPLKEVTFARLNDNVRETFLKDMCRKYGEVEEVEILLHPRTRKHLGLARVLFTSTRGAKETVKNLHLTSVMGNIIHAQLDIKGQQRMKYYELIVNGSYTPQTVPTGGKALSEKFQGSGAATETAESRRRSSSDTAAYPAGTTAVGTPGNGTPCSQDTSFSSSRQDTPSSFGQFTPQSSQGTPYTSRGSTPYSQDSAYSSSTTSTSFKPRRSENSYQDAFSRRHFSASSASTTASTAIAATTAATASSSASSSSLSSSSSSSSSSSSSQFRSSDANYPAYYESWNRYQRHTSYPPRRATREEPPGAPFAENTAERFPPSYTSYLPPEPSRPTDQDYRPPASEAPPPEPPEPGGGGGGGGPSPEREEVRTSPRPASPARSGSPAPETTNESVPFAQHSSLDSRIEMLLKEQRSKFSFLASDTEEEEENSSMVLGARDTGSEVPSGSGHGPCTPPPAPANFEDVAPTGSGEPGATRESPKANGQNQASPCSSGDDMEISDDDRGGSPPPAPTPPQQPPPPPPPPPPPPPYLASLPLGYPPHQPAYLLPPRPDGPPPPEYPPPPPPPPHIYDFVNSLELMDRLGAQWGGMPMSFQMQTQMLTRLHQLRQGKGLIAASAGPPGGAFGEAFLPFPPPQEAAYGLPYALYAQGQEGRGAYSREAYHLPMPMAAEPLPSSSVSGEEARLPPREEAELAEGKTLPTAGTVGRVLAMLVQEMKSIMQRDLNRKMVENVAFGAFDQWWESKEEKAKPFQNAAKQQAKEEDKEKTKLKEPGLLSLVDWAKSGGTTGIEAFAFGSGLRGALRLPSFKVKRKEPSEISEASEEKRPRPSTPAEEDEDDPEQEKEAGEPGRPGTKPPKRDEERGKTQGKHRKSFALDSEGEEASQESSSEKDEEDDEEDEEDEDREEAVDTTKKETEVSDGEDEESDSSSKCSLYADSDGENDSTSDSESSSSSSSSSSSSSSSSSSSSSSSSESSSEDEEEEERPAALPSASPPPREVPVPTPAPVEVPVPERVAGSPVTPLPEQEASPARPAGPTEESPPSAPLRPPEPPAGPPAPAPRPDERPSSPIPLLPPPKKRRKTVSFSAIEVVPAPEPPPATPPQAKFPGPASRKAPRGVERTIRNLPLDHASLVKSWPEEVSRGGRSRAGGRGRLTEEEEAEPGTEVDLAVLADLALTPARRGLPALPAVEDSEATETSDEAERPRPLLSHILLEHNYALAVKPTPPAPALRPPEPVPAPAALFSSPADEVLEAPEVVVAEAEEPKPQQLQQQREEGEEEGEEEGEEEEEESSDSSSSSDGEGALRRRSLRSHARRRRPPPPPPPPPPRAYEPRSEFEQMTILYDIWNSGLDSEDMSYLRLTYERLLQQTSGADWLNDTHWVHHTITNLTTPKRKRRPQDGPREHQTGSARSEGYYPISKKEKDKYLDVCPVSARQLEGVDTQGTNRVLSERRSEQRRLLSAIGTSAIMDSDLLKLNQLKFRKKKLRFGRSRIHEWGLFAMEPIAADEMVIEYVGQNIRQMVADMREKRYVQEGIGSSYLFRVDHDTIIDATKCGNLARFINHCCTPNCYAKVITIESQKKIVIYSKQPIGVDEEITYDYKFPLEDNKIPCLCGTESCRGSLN
UniProt Q969G3: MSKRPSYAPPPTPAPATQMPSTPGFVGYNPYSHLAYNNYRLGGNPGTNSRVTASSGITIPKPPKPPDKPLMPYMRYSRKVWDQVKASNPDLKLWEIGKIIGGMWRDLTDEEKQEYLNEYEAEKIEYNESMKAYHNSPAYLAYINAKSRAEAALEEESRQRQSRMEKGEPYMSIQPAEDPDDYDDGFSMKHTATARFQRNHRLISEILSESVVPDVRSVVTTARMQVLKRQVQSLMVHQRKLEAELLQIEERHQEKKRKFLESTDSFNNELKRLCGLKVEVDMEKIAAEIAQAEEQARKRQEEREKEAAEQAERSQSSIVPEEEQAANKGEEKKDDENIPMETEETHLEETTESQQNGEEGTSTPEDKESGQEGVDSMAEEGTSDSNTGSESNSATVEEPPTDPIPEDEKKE
UniProt Q96RL1: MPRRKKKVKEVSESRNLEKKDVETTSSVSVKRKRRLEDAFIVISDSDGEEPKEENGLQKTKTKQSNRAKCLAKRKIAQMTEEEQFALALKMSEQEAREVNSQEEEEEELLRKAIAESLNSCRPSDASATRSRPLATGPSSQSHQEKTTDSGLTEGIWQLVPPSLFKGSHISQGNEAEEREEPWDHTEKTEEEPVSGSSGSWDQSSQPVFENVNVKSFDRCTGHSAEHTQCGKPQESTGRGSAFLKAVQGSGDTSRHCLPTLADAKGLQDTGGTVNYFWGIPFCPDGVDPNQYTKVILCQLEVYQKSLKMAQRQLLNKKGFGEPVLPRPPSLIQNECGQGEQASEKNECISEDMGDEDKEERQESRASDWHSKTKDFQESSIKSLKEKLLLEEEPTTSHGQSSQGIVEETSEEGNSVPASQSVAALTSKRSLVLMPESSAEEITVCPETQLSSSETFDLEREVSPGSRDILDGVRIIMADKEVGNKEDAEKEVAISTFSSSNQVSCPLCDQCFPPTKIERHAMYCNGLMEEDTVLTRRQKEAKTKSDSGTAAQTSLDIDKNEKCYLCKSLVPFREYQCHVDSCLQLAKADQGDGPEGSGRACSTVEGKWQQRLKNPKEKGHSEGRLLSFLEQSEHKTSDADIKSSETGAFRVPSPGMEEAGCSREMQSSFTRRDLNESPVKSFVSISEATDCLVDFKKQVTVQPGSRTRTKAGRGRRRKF

Experiments:
[1] = target: ERα-Flag (UniProt P03372); experiment: proximity labelling; ERα-Flag BAR (biotinylation by antibody recognition): fixed, permeabilised MCF7-TO cells, anti-Flag primary antibody, HRP-conjugated secondary antibody, biotin phenol and H2O2 for 3 min; streptavidin beads, label-free MS, n = 3; control: doxycycline-treated cells without ERα-Flag
[2] = target: Estrogen receptor α (ERα), endogenous (human (endogenous in MCF7)) (UniProt P03372); experiment: proximity labelling; ERα BAR: fixed, permeabilised MCF7-wt cells, 6F11 anti-ERα primary antibody, HRP-conjugated secondary antibody, biotin phenol and H2O2 for 3 min; streptavidin beads, label-free MS, n = 3; control: primary antibody omitted
[3] = target: ERα^Y537C, endogenous in MCF7-LTED^Y537C cells (human (endogenous in MCF7-LTED^Y537C)) (UniProt P03372); experiment: proximity labelling; ERα BAR TMT: endogenous ERα targeted with 6F11 in fixed MCF7-wt, MCF7-LTED^wt and MCF7-LTED^Y537C cells; streptavidin beads, TMTpro-16 plex MS, n = 2; controls: tubulin BAR (spatial) and primary antibody omitted
[4] = target: Estrogen receptor α (ERα), endogenous (human (endogenous in MCF7)) (UniProt P03372); experiment: as above

Row | binding [1] | binding [2] | binding [3] | binding [4] | Substance
1 | binds | binds | – | – | CBX3 (from UniProt Q13185 1-183)
2 | binds | – | binds | binds | DDX17 (from UniProt Q92841 1-729)
3 | – | – | binds | – | GATA3 (from UniProt P23771 1-443)
4 | – | – | binds | – | GREB1 (from UniProt Q4ZG55 1-1949)
5 | – | – | – | binds | MED1 (from UniProt Q15648 1-1581)
6 | binds | binds | – | – | NCOR1 (from UniProt O75376 1-2440)
7 | binds | binds | binds | binds | PELP1 (from UniProt Q8IZL8 1-1130)
8 | – | – | binds | binds | RCOR1 (from UniProt Q9UKL0 1-485)
9 | binds | binds | binds | binds | RING1 (from UniProt Q06587 1-406) (enzyme)
10 | – | – | binds | binds | SETD1A (from UniProt O15047 1-1707) (enzyme)
11 | – | – | binds | binds | SMARCD2 (from UniProt Q92925 1-531)
12 | – | – | binds | binds | SMARCE1 (from UniProt Q969G3 1-411)
13 | – | – | – | binds | UIMC1 (from UniProt Q96RL1 1-719)

No constants are given. Whether binding was seen depends on the method and setting. Binding seen in cells or lysates may run through a third protein. A yes stands for co-enrichment or nearness to the bait. Other partners may have been found.
